Reference: PubChem BioAssay AID743454 (Peter MacCallum Cancer Centre, 2014)
Shown is a random part of about 18,000 reagents. 450 of all reagents (2.5%) were called active. 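Single biological run; no consistent viability z cut-off exists, so the class columns, not z-scores, define the calls.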

- Test: 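Knock-downs lowering viability or raising caspase 3/7 activity in vorinostat-treated resistant cells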 (primary screen)
- System: human HCT116-VR colon cancer cells, selected for vorinostat resistance
- Reagents: siRNA pool against human genes, 40 nM siRNA pool
- Time to read-out: vorinostat for 24 h, read-out about 72 h after transfection
- Conditions: vorinostat at 2.5 µM final
- Read-out: 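Cell viability by CellTiter-Fluor and caspase 3/7 activity by luminescence, each scaled to mock wells per plate, duplicates averaged, then robust z-scored over all plates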
- Reading the numbers: viability robust z-score: higher = more viable cells than screen typical; caspase robust z-score: higher = more caspase 3/7 activity than screen typical
- Active means: 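Hits are knock-downs in viability class RV1/RV2 or caspase class CA1/CA2, excluding ones that killed cells in the no-drug cell-count arm; hits then retested with single siRNAs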

For PPP2R1A (GeneID 5518), the entry reads viability hit class no change; caspase hit class no change; viability robust z-score -1.14; caspase robust z-score 1.51; inactive. After knock-down of ALDH1L1 (GeneID 10840) the results were viability hit class no change; caspase hit class no change; viability robust z-score -0.27; caspase robust z-score -0.26; inactive. Against VEGFA (GeneID 7422), the values are viability hit class no change; caspase hit class no change; viability robust z-score 1.7; caspase robust z-score -0.92; inactive. PLIN5 (GeneID 440503) gave viability hit class no change; caspase hit class no change; viability robust z-score -0.12; caspase robust z-score 0.42; inactive. With knock-down of FAM227B (GeneID 196951), the record shows viability hit class no change; caspase hit class no change; viability robust z-score 0.44; caspase robust z-score -0.45; inactive. Silencing of BRPF1 (GeneID 7862) resulted in: viability hit class no change; caspase hit class no change; viability robust z-score 0.28; caspase robust z-score -1.09; inactive.

GARS1 (GeneID 2617) scored viability hit class no change; caspase hit class no change; viability robust z-score -0.45; caspase robust z-score -0.7; inactive. After knock-down of ZNF254 (GeneID 9534) the results were viability hit class no change; caspase hit class no change; viability robust z-score 1.64; caspase robust z-score -1.08; inactive. With knock-down of CLEC4M (GeneID 10332) the results were viability hit class no change; caspase hit class no change; viability robust z-score 0.64; caspase robust z-score -0.61; inactive. EDRF1 (GeneID 26098) showed viability hit class no change; caspase hit class no change; viability robust z-score 0.9; caspase robust z-score 0.01; inactive. For TLCD3B (GeneID 83723), the entry reads viability hit class no change; caspase hit class no change; viability robust z-score -0.9; caspase robust z-score 3.13; inactive. Knock-down of DHX15 (GeneID 1665) came out at: viability hit class no change; caspase hit class no change; viability robust z-score -0.74; caspase robust z-score 0.83; inactive.

With knock-down of YJU2 (GeneID 55702), the record shows viability hit class no change; caspase hit class no change; viability robust z-score 0.24; caspase robust z-score 0.56; inactive. Depletion of ABCC2 (GeneID 1244) gave: viability hit class no change; caspase hit class no change; viability robust z-score 0.69; caspase robust z-score -0.36; inactive. Against CEACAM18 (GeneID 729767), the entry reads viability hit class no change; caspase hit class no change; viability robust z-score -0.09; caspase robust z-score -0.14; inactive. Against CDH1 (GeneID 999) the deposit lists viability hit class no change; caspase hit class no change; viability robust z-score 1.49; caspase robust z-score 0.08; inactive. For KIRREL1 (GeneID 55243), the values are viability hit class no change; caspase hit class no change; viability robust z-score -0.62; caspase robust z-score 2.92; inactive. Depletion of TMEM88 (GeneID 92162) resulted in: viability hit class no change; caspase hit class no change; viability robust z-score -0.04; caspase robust z-score 1.79; inactive.

Against SFT2D2 (GeneID 375035), the entry reads viability hit class no change; caspase hit class no change; viability robust z-score 0.84; caspase robust z-score 0.96; inactive. With knock-down of ERG28 (GeneID 11161) the results were viability hit class no change; caspase hit class no change; viability robust z-score -1.03; caspase robust z-score 0.9; inactive. IQUB (GeneID 154865) gave viability hit class no change; caspase hit class no change; viability robust z-score 0.18; caspase robust z-score 1.5; inactive.

2 entries from above, reformatted:
gene,viability hit class,caspase hit class,viability robust z-score,caspase robust z-score,activity call
ERG28 (GeneID 11161),no change,no change,-1.03,0.9,inactive
IQUB (GeneID 154865),no change,no change,0.18,1.5,inactive
